Measurements reported in PubChem BioAssay AID504793 (Drosophila RNAi Screening Center, 2011)

- Purpose: 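Whole-genome screen for parts of the DNA damage checkpoint at G2/M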 (primary screen)
- Cells: Drosophila S2R+ cells
- Reagents: long dsRNA against Drosophila genes, about 0.25 µg dsRNA per well
- Time to read-out: 4 days of dsRNA, then 4 hours of drug before read-out
- Challenge: doxorubicin 0.5 µM for 4 hours to cause double-strand breaks, in cells also given a low, harmless dose of dsRNA against nbs to sensitise the assay
- Measured: 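Per-well count of mitotic cells stained for phospho-histone H3 after doxorubicin exposure, used as mitotic index; counts are raw and not normalised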
- Scale: mitotic cells: higher = more cells in mitosis, weaker G2 arrest
- Hit rule: 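a call needs confirmation in secondary tests, with other dsRNAs and a check of mitotic timing without damage, not just a high primary count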
- Calls: active = confirmed in follow-up tests; inactive = not confirmed
In all, the deposit lists about 23,000 reagents; this is a random part of those that have a named target and a result. Over the whole deposit, 62 (0.27%) got an active call. 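Calls come from follow-up tests whose scores are not deposited, so confirmed genes may have low counts here; counts are not normalised per plate.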 Raw values are not corrected between plates. No sequences are given here.

predicted target | amplicon | mitotic cells, replicate 1 | mitotic cells, replicate 2 | Outcome
Snrk (SNF related kinase) | DRSC07192 | 9 | – | inactive
Snrk (SNF related kinase) | DRSC23332 | 15 | – | inactive
Men-b (Malic enzyme b) | DRSC16736 | 16 | – | inactive
La (La autoantigen-like) | DRSC03358 | 7 | – | inactive
Nnf1a | DRSC06394 | 8 | – | inactive
Parp1 (Poly-(ADP-ribose) polymerase 1) | DRSC07725 | 7 | – | inactive
Parp1 (Poly-(ADP-ribose) polymerase 1) | DRSC07778 | 7 | – | inactive
Parp1 (Poly-(ADP-ribose) polymerase 1) | DRSC07780 | 21 | – | inactive
crol (crooked legs) | DRSC03514 | 6 | – | inactive
crol (crooked legs) | DRSC21348 | 13 | – | inactive
crol (crooked legs) | DRSC26800 | 7 | – | inactive
Ugt37E1 (UDP-glycosyltransferase family 37 member E1) | DRSC02248 | 6 | – | inactive
Ugt37E1 (UDP-glycosyltransferase family 37 member E1) | DRSC24769 | 4 | – | inactive
CG33459 | DRSC05615 | 4 | – | inactive
Neto (Neuropilin and tolloid-like) | DRSC18982 | 11 | 10 | inactive
Neto (Neuropilin and tolloid-like) | DRSC19503 | 10 | – | inactive
Neto (Neuropilin and tolloid-like) | DRSC19716 | 22 | – | inactive
Neto (Neuropilin and tolloid-like) | DRSC19717 | 11 | – | inactive
Cpsf6 (Cleavage and polyadenylation specific factor 6) | DRSC10781 | 6 | – | inactive
CG13557 | DRSC04195 | 1 | – | inactive
kuk (kugelkern) | DRSC15730 | 3 | – | inactive
kuk (kugelkern) | DRSC26235 | 4 | – | inactive
CG14440 | DRSC23008 | 10 | – | inactive
CG14440 | DRSC23009 | 14 | – | inactive
CG14440 | DRSC25806 | 5 | – | inactive
Ero1L (Endoplasmic reticulum oxidoreductin-1-like) | DRSC08660 | 9 | – | inactive
Smn (survival motor neuron) | DRSC10223 | 13 | – | inactive
wkd (whacked) | DRSC15777 | 6 | – | inactive
pst (pastrel) | DRSC11003 | 7 | – | inactive
eIF2Bepsilon (eukaryotic translation initiation factor 2B subunit epsilon) | DRSC18769 | 11 | – | inactive
dbo (diablo) | DRSC11339 | 8 | – | inactive
Alp8 (Alkaline phosphatase 8) | DRSC04353 | 6 | – | inactive
Alp8 (Alkaline phosphatase 8) | DRSC27635 | 7 | – | inactive
CG4733 | DRSC15634 | 13 | – | inactive
qm (quemao) | DRSC11386 | 3 | – | inactive
qm (quemao) | DRSC26597 | 8 | – | inactive
CG5089 | DRSC06914 | 3 | – | inactive
CG5089 | DRSC30089 | 4 | – | inactive
CG3918 | DRSC23159 | 17 | – | inactive
CG3918 | DRSC28834 | 4 | – | inactive
snk (snake) | DRSC17060 | 8 | – | inactive
CG14062 | DRSC14725 | 12 | – | inactive
CG14062 | DRSC27180 | 3 | – | inactive
CG16813 | DRSC24977 | 4 | – | inactive
CR31032 (pseudo) | DRSC22457 | 6 | – | inactive
CR31032 (pseudo) | DRSC25512 | 4 | – | inactive
